From patent US8568699B2, “Soft anticholinergic zwitterions” (priority 2005, dated 2013)
Marks after values point to notes of the source that are not given here.

Test system: muscarinic M3 cholinoceptors (guinea pig tracheal rings)
Format: cell-based
Details: antagonism against carbachol, isolated guinea pig tracheal rings

CN1[C@@H]2CC[C@H]1C[C@@H](OC(=O)C(CO)c1ccccc1)C2 (stereo partly shown) [Atropine]
Slope ± S.E. (Schild plot): 0.98 ± 0.02^a
